Test results reported in publication PMC5467174.
These are yes or no findings as the source states them, for the method shown. In cells and extracts the contact can be indirect. Some entries that bind do so weakly or less than the wild type. For part of these data: Where a sequence is shown, tags or fusion partners need not be part of it. One block for each substance: values may come before it.

By UniProt entry, the sequences of proteins in these tests, tags left out.
UniProt P62258: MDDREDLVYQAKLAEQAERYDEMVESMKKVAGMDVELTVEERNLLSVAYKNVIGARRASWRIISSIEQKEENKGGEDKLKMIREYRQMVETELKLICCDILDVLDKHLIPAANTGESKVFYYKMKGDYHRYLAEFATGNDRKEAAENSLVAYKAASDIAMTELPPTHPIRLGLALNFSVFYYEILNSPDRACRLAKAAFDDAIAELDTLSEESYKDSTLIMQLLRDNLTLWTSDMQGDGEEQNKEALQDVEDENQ
UniProt Q8NDV7: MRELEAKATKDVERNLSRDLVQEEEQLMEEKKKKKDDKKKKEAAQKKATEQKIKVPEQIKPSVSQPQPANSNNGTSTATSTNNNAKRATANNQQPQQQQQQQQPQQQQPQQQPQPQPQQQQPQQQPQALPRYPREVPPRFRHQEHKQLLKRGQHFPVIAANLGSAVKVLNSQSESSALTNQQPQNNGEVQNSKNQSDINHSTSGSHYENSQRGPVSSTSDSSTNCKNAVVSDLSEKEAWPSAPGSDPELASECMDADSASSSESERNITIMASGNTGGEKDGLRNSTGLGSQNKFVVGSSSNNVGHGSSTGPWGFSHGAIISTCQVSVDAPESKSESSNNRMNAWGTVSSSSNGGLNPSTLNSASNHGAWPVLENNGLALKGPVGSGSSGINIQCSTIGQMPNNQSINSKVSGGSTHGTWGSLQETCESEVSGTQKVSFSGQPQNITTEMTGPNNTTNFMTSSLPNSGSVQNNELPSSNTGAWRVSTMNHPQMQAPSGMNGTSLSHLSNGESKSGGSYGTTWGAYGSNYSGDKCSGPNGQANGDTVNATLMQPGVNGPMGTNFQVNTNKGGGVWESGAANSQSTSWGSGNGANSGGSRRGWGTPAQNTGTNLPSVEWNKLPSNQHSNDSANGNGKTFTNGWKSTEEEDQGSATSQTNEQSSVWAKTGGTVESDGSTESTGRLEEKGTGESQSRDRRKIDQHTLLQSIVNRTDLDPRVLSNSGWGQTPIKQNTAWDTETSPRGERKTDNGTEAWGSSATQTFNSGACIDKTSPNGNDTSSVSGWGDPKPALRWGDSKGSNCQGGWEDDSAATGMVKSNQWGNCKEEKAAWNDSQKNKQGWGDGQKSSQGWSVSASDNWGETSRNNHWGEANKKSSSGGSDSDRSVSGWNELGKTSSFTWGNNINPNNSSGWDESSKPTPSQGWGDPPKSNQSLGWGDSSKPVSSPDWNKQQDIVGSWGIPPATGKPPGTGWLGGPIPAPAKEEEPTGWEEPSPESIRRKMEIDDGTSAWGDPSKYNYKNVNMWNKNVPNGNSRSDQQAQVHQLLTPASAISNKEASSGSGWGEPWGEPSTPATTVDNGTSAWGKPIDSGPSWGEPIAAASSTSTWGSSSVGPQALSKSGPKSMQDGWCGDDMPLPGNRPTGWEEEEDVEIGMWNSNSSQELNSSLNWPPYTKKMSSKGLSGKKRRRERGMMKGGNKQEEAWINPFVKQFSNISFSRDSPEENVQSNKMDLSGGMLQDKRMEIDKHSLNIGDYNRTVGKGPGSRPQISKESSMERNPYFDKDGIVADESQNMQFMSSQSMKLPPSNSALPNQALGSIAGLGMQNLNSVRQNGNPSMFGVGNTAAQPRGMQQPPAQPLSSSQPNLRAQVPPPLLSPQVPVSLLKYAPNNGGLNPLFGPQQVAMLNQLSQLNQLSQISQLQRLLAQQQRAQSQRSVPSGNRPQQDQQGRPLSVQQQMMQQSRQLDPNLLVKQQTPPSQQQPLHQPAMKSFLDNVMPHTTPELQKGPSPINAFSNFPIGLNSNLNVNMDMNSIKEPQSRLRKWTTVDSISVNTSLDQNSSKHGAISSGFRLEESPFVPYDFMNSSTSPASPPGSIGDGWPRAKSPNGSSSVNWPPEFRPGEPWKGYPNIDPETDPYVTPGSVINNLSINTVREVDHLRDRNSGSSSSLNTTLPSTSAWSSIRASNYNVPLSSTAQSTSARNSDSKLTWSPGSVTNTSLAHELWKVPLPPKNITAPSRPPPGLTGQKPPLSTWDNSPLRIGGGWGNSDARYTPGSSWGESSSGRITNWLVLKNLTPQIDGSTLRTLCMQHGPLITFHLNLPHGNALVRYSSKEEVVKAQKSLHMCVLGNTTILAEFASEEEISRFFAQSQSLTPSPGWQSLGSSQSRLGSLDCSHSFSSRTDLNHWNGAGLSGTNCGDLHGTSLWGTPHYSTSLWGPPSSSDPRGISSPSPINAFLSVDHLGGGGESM
UniProt Q14008: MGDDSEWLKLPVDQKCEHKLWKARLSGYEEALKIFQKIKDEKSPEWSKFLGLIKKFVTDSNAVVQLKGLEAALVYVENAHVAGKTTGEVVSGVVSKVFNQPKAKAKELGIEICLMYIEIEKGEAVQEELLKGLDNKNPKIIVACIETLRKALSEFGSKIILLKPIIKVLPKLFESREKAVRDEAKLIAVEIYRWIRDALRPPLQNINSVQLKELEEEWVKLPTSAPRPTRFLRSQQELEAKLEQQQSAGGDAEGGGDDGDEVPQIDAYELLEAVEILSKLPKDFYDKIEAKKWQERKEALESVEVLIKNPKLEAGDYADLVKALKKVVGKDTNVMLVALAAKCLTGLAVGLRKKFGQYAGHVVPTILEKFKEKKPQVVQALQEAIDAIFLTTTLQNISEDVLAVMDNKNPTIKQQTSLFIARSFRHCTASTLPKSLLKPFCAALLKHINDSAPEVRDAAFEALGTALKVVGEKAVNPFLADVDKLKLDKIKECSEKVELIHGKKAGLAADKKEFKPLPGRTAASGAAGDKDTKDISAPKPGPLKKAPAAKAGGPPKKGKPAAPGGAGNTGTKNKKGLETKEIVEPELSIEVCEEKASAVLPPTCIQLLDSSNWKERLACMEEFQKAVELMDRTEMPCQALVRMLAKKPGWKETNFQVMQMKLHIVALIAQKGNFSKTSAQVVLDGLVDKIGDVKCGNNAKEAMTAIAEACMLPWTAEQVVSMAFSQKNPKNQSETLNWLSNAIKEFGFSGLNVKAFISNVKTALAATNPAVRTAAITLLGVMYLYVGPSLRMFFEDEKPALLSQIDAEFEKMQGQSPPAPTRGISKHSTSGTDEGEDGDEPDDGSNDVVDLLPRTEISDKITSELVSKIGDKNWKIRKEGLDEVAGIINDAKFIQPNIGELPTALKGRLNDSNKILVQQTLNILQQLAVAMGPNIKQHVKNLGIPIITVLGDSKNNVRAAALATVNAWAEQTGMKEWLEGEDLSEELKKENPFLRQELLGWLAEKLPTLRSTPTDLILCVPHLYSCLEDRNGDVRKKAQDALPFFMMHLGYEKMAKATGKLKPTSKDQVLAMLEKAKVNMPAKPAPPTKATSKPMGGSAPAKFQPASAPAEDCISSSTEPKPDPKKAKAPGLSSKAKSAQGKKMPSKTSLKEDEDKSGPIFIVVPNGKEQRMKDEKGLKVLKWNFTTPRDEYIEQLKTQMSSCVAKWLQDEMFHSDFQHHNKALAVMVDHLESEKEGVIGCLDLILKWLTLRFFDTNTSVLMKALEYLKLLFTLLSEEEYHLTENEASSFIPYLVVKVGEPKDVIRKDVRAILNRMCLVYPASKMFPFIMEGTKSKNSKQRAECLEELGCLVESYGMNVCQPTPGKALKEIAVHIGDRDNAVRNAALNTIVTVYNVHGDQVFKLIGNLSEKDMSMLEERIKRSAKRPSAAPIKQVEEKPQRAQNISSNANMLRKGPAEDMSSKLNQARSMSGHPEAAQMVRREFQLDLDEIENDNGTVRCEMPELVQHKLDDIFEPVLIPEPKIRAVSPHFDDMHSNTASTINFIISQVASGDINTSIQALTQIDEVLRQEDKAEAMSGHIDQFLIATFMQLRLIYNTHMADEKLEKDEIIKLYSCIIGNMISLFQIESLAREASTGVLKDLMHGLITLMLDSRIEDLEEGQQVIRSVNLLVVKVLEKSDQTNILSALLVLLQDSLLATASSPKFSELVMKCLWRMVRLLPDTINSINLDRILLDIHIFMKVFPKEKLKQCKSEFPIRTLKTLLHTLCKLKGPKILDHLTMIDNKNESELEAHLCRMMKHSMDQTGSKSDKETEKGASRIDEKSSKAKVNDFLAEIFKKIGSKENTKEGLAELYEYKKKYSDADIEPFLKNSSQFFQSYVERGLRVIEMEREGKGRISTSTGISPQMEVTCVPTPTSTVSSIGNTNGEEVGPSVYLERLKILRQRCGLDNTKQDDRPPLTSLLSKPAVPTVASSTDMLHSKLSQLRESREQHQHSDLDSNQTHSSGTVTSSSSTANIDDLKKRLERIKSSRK
UniProt Q9UPY3: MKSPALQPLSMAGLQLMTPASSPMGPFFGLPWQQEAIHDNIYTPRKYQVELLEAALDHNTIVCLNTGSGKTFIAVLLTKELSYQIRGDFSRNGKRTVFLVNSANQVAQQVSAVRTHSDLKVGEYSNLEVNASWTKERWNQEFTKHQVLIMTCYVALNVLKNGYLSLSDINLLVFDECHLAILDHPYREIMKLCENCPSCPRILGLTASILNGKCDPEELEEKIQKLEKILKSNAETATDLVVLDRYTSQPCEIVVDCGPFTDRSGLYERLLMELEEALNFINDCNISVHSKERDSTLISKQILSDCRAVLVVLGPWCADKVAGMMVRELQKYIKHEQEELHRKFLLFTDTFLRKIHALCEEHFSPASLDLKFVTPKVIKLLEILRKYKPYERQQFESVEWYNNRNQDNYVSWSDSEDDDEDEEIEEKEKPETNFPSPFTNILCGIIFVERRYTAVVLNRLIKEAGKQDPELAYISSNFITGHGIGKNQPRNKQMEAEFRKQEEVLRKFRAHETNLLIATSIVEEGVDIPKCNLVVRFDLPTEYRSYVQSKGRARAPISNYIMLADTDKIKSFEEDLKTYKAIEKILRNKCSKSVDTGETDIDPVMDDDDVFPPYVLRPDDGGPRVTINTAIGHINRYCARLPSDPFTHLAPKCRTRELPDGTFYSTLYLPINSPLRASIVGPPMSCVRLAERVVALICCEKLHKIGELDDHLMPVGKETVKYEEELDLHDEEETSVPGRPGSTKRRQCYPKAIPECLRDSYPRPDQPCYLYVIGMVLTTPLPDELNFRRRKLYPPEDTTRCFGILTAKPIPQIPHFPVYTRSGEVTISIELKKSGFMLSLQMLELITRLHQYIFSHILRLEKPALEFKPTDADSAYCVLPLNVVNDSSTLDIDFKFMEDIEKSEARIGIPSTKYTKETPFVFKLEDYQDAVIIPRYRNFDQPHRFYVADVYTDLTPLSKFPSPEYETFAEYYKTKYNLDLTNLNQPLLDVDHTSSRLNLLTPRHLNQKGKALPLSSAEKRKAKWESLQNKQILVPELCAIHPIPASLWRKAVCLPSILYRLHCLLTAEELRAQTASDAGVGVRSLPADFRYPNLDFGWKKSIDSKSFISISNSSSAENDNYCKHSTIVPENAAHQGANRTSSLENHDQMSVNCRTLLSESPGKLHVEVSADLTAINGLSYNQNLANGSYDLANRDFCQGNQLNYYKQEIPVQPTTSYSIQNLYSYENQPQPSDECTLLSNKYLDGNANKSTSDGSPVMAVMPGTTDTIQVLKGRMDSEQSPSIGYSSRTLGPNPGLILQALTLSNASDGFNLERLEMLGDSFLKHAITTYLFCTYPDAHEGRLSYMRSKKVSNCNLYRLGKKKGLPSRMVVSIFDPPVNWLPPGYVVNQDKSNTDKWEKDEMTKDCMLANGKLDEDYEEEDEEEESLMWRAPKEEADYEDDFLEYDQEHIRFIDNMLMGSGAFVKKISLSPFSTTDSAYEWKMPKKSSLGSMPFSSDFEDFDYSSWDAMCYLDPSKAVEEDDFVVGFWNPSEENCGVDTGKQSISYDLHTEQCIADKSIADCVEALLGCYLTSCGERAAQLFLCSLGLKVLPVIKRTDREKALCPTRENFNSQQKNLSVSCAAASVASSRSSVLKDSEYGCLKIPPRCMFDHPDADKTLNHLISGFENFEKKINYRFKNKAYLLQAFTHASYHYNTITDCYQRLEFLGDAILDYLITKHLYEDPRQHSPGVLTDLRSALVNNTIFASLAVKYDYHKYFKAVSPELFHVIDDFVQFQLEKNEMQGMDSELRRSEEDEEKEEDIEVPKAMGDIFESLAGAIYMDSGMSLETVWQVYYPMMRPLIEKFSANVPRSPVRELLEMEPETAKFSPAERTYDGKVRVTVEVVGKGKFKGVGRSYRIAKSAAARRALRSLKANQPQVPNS

How the values were obtained:
[1] = biological target: T1, FLAG-CBirA*-Cdc25C WT (UniProt P30307); test: split reporter; split-BioID protein fragment complementation (BirA* split at E256/G257): NBirA* and CBirA* fusions co-expressed in transiently transfected HeLa 11ht cells; 50 μM biotin, 200 ng/ml doxycycline, 24 h, no rapamycin; biotinylation in lysates read on blots with Alexa680-labelled streptavidin
T1 sequence: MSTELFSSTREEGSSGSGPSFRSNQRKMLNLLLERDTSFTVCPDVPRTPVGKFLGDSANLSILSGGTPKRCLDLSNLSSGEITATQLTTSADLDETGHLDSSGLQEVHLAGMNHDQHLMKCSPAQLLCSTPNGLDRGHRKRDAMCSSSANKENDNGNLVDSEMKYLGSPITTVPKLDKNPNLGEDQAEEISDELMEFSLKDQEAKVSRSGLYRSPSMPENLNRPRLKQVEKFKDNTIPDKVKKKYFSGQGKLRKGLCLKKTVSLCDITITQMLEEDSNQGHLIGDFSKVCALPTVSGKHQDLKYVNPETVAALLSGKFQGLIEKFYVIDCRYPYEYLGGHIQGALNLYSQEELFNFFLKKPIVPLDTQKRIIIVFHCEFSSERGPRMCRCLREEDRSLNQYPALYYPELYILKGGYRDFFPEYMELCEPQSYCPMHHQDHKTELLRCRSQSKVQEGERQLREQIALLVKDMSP

[2] = biological target: T2, GIGYF2 (human (endogenous in HeLa)) (UniProt Q6Y7W6); test: co-IP; endogenous proteins from HeLa 11ht lysate, without micrococcal nuclease; anti-Ago2, anti-TNRC6A, anti-GIGYF2 or control IgG (5 μg each) on beads; western blot
T2 sequence: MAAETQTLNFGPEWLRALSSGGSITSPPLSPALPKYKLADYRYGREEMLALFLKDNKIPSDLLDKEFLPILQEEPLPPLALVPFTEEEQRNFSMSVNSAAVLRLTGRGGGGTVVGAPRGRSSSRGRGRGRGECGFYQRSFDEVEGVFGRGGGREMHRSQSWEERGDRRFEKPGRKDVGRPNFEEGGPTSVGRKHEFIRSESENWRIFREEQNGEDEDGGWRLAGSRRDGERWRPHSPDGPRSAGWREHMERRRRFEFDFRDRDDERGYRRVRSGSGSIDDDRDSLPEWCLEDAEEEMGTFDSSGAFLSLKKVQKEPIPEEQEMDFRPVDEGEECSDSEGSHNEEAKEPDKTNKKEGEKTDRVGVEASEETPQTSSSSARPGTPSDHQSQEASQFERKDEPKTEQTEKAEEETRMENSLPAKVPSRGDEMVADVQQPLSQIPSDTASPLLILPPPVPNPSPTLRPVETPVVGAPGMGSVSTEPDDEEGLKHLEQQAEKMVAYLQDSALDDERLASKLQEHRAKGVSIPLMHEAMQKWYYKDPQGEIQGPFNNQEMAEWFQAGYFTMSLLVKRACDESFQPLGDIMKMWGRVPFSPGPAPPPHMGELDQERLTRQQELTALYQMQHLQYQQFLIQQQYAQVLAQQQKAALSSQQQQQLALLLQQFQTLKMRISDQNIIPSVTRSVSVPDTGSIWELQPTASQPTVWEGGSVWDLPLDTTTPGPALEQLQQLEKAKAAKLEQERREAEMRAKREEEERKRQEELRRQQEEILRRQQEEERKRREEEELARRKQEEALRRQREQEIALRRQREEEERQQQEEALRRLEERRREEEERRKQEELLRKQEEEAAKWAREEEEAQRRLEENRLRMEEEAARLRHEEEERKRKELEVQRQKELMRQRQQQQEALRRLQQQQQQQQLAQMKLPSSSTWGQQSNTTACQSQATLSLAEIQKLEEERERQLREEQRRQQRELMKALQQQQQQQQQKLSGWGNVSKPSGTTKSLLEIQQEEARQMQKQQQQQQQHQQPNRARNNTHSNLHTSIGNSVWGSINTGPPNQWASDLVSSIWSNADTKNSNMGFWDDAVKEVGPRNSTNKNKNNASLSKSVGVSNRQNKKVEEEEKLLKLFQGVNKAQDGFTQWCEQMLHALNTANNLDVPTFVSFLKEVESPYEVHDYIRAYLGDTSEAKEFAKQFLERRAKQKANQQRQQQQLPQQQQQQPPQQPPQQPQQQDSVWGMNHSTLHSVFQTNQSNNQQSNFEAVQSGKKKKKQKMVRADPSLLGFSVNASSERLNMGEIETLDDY

[3] = biological target: T2, GIGYF2 (human (endogenous in HeLa)); test: co-IP; endogenous proteins from HeLa 11ht lysate pre-treated with micrococcal nuclease (14 gel units per μl, 1.5 mM CaCl2, 25 min at RT); anti-GIGYF2 on beads; western blot
[4] = biological target: T1, FLAG-CBirA*-Cdc25C WT; test: co-IP; lysates of HeLa cells transfected with the Myc-NBirA* and FLAG-CBirA* fusions; anti-Myc or anti-FLAG antibody on magnetic beads, overnight at 4 °C, washes with 50 mM Tris pH 7.4, 300 mM NaCl, 1 mM MgCl2, 0.5% NP-40; western blot; untransfected cells as control
[5] = biological target: myc-NBirA*-14-3-3ɛ (UniProt P62258); test: as above
[6] = biological target: CBirA*-Ago2 (UniProt Q9UKV8); test: split reporter; split-BioID protein fragment complementation (BirA* split at E256/G257): NBirA* and CBirA* fusions co-expressed in transiently transfected HeLa 11ht cells; 50 μM biotin, 200 ng/ml doxycycline, 24 h, no rapamycin; biotinylation in lysates read on blots with Alexa680-labelled streptavidin

binding [1]: binds
Substance: myc-NBirA*-14-3-3ɛ (from UniProt P62258 1-255)

binding [2]: binds weakly | binding [3]: binds weakly
Substance: TNRC6A (from UniProt Q8NDV7 1-1962)

binding [4]: no binding | binding [5]: no binding
Substance: CKAP5 (from UniProt Q14008 1-2032)

binding [6]: binds
Substance: NBirA*-Dicer (from UniProt Q9UPY3 1-1922) (enzyme)
